Results as given in patent US20110218188A1, “SUBSTITUTED (PYRIDYL)-AZINYLAMINE DERIVATIVES AS FUNGICIDES” (priority 2008, published 2011).
Some entries share one result that the patent states for a list of compounds.

Legend:
Puccinia triticina = test: Puccinia triticina-test (wheat)/preventive; conditions: 1000 ppm of active ingredient, preventive, evaluated 8 days after the inoculation
Leptosphaeria nodorum = test: Leptosphaeria test (wheat)/preventive; conditions: 500 ppm of active ingredient, preventive, evaluated 7-9 days after the inoculation
Venturia inaequalis = test: Venturia test (apples)/protective; format: in vivo; conditions: 100 ppm of active ingredient, protective, evaluated 10 days after the inoculation
[1] = test system: Fusarium nivale (var. majus); test: Fusarium nivale (var. majus)-test (wheat)/preventive; conditions: 1000 ppm of active ingredient, preventive, evaluated 5 days after the inoculation
Uromyces appendiculatus = test: Uromyces test (beans)/protective; format: in vivo; conditions: 100 ppm of active ingredient, protective, evaluated 10 days after the inoculation
Phakopsora pachyrhizi = test: Phakopsora test (soybeans)/protective; format: in vivo; conditions: 500 ppm of active ingredient, protective, evaluated 11 days after the inoculation
Pyrenophora teres = test: In vivo test on Pyrenophora teres (barley net blotch); conditions: dose of 500 ppm; barley plants sprayed 24 hours before contamination; grading 12 days after the contamination
Puccinia recondita = test: In vivo test on Puccinia recondita (brown rust); conditions: dose of 500 ppm; wheat plants sprayed 24 hours before contamination; grading 10 days after the contamination
Peronospora parasitica = test: In vivo test on Peronospora parasitica (crucifer downy mildew); conditions: dose of 500 ppm; cabbage plants sprayed 24 hours before contamination; grading 5 days after the contamination, in comparison with the control plants
Sphaerotheca fuliginea = test: In vivo test on Sphaerotheca fuliginea (cucurbits powdery mildew); conditions: dose of 500 ppm; gherkin plants sprayed 24 hours before contamination; grading (% of efficacy) 12 days after the contamination
Botrytis cinerea = test: In vivo test on Botrytis cinerea (grey mould); conditions: dose of 500 ppm; gherkin plants sprayed 24 hours before contamination; grading 5/7 days after the contamination
Rhizoctonia solani = test: Rhizoctonia test (rice)/protective; format: in vivo; conditions: 250 ppm of active ingredient, protective, evaluated 4 days after the inoculation

| SMILES | efficacy (Leptosphaeria nodorum) | efficacy (Venturia inaequalis) | efficacy (Uromyces appendiculatus) | efficacy (Phakopsora pachyrhizi) | good (at least 70%) protection (Pyrenophora teres) | also measured |
| --- | --- | --- | --- | --- | --- | --- |
| CCN(C)C(=S)c1cc(-c2ncnc(Nc3ccc(F)c(Cl)c3)n2)ccn1 [Example B209] | ≥ 70% | ≥ 70% | ≥ 70% | ≥ 80% | – | efficacy (Puccinia triticina): ≥ 70%; efficacy [1]: ≥ 70% |
| CN(CC(F)F)C(=O)c1cc(-c2ncnc(Nc3cccc(C(F)F)c3)n2)ccn1 [Example B371] | ≥ 70% | ≥ 70% | ≥ 70% | ≥ 80% | – | efficacy (Puccinia triticina): ≥ 70% |
| Cc1ccc(Nc2ncnc(-c3ccnc(C(=O)N(C)CCC#N)c3)n2)cc1Cl [Example B366] | ≥ 70% | ≥ 70% | ≥ 70% | ≥ 80% | – | – |
| CCN(C)C(=O)c1cc(-c2ccnc(Nc3ccnc(Cl)c3)n2)ccn1 [Example A17, 4-{2-[(2-chloropyridin-4-yl)amino]pyrimidin-4-yl}-N-ethyl-N-methylpyridine-2-carboxamide] | – | – | – | ≥ 80% | at least 70% | good (at least 70%) or total protection (Puccinia recondita): at least 70% |
| CCN(C)C(=O)c1cc(-c2ncnc(Nc3ccc(C)c(Cl)c3)n2)ccn1 [Example B236] | – | ≥ 70% | ≥ 70% | – | – | good (at least 70%) or total protection (Peronospora parasitica): at least 70%; good (at least 70%) or total protection (Sphaerotheca fuliginea): at least 70%; good (at least 70%) or total protection (Puccinia recondita): at least 70%; good (at least 70%) or total protection (Botrytis cinerea): at least 70% |
| CCN(C)C(=O)c1cc(-c2ncnc(Nc3ccc(F)c(Cl)c3)n2)ccn1 [Example B207] | – | – | – | – | at least 70% | efficacy (Rhizoctonia solani): ≥ 80% |
| CN(C(=O)c1cc(-c2ncnc(Nc3cccc(Cl)c3)n2)ccn1)C1CCCC1 [Example B149] | – | – | – | – | at least 70% | good (at least 70%) or total protection (Botrytis cinerea): at least 70%; efficacy (Rhizoctonia solani): ≥ 80% |
